Consider two substances from PMC5117208.

Protein sequences, listed by entry. Tags and fused reporters are not part of them.
UniProt P68106: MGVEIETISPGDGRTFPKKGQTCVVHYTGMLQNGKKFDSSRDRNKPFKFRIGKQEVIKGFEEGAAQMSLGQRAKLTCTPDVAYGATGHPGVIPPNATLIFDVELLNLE
UniProt Q92736: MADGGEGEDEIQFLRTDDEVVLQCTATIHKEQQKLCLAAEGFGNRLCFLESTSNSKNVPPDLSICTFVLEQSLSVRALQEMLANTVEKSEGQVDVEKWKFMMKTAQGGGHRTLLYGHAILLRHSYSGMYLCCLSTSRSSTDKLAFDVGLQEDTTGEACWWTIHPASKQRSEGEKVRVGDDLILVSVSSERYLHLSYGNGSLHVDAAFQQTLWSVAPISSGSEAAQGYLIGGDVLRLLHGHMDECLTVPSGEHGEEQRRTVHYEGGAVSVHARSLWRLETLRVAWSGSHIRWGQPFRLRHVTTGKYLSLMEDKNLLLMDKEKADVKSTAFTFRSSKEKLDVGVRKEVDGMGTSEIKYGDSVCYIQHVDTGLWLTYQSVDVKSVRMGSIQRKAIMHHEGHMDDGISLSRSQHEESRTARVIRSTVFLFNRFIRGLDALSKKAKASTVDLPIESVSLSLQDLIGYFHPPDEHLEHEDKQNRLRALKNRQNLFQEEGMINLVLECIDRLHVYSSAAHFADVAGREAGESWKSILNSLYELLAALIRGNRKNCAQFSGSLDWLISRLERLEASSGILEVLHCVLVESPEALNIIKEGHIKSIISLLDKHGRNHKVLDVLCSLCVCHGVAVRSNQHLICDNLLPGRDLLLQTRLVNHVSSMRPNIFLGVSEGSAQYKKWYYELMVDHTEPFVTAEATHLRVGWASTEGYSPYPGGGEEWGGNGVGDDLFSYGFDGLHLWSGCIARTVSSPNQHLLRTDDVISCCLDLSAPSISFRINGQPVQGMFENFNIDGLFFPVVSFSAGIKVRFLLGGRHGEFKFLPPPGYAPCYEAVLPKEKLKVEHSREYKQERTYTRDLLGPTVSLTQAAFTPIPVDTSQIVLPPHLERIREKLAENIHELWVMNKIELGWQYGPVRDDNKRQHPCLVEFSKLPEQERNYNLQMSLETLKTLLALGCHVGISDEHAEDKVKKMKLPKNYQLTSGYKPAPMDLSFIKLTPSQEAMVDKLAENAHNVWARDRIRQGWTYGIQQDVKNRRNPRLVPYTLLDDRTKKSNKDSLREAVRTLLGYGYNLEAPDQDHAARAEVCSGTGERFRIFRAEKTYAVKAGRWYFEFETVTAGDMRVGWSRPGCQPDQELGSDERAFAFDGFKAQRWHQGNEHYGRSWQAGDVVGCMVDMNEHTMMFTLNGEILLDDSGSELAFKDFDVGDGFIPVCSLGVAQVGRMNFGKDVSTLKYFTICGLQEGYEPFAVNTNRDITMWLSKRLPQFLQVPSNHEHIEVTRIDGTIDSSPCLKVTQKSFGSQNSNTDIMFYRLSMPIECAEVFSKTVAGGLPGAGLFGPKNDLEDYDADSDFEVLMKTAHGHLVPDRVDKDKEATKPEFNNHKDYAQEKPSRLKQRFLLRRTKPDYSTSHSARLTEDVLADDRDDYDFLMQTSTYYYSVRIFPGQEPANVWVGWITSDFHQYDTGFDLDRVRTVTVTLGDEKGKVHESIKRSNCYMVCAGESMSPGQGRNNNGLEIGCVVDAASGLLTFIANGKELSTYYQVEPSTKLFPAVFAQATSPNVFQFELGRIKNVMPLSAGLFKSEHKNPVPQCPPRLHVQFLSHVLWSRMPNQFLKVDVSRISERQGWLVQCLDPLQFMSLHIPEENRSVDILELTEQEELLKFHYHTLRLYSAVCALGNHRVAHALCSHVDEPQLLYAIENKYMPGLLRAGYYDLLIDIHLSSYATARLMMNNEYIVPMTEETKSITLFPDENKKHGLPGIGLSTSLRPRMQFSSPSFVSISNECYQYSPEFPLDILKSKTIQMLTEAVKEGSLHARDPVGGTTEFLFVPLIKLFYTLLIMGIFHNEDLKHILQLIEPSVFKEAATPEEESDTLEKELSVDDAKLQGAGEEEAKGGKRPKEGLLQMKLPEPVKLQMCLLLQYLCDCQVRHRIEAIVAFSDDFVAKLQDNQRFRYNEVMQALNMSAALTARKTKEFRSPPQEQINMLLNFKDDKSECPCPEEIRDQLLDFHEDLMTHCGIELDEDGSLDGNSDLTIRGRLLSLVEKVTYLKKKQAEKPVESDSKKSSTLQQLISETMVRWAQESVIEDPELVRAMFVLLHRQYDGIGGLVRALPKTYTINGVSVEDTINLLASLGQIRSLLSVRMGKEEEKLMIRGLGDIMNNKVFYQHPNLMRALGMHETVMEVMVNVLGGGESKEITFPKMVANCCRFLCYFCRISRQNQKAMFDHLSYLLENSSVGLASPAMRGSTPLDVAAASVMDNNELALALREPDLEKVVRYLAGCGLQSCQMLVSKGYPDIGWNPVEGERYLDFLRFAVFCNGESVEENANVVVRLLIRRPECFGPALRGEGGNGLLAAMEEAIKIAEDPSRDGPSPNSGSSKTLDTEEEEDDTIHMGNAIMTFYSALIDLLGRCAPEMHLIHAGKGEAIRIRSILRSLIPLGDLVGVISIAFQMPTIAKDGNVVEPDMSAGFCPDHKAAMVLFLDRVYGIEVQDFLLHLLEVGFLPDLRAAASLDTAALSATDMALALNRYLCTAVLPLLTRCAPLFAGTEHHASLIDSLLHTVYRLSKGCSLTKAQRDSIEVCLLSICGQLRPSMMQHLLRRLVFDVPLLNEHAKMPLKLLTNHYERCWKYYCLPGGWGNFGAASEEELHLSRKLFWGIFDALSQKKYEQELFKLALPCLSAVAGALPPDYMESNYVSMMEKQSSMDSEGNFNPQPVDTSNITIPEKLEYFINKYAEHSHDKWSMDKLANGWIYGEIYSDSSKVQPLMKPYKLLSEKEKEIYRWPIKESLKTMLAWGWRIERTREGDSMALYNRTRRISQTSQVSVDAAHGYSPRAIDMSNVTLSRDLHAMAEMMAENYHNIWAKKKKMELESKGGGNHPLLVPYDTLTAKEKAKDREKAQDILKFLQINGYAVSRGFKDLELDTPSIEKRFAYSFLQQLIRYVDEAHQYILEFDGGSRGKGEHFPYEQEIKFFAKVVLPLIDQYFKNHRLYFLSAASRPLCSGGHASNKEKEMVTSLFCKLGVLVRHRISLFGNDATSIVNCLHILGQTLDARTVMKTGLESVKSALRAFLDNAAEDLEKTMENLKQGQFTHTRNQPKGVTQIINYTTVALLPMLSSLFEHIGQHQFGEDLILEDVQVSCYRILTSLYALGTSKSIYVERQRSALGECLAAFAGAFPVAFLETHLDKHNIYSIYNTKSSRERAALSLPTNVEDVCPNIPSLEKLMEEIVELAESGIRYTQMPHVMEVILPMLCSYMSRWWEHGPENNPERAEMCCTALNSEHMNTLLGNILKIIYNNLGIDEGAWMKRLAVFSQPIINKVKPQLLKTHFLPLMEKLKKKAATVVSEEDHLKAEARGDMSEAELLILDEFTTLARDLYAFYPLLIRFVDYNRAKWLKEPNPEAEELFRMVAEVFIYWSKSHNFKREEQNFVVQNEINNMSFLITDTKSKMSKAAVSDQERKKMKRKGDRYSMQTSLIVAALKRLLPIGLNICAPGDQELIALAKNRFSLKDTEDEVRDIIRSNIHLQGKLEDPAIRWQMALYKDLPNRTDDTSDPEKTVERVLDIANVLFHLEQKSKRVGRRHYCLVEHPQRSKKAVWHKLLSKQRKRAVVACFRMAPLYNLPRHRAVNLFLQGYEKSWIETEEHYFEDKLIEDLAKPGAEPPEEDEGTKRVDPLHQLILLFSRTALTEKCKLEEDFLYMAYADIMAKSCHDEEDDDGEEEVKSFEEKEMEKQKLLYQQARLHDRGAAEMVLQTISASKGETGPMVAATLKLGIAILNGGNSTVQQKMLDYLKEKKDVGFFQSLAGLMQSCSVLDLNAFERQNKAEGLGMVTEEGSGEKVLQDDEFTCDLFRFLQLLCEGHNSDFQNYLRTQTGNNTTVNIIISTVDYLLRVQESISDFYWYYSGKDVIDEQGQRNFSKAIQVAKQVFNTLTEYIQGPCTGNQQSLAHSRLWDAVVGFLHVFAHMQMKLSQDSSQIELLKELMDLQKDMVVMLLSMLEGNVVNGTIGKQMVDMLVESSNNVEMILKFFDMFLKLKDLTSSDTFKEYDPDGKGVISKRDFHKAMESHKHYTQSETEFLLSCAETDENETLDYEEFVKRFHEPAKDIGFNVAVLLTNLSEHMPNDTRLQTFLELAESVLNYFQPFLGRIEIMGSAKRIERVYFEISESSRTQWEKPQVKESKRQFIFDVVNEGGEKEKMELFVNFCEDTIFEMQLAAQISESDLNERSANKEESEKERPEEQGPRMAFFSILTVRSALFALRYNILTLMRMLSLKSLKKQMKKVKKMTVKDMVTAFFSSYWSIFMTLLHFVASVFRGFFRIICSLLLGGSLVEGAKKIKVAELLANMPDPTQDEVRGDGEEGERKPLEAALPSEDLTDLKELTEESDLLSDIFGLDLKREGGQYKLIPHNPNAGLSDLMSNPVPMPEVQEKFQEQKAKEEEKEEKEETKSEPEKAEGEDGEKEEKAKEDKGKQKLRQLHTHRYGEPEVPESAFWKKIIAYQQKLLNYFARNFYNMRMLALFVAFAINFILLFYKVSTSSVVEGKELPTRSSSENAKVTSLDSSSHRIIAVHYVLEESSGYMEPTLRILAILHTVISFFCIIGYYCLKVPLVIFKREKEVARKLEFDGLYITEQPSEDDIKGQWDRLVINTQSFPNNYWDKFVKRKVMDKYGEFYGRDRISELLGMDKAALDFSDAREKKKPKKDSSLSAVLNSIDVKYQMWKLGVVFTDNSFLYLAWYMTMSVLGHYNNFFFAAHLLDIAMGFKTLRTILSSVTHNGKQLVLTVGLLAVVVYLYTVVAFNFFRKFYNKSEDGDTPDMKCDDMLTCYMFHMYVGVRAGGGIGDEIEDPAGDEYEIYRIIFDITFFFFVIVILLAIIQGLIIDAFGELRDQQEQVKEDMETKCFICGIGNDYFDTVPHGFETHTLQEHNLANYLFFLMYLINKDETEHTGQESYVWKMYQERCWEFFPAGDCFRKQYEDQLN

These are yes or no findings as the source states them, for the method shown. In cells and extracts the contact can be indirect. Some binding calls cover weakened binding; strength is not graded here. For part of these data: Where a sequence is shown, tags or fusion partners need not be part of it.

The target in one assay is GST–FKBP12.6 (UniProt P68106). Briefly: pull-down; purified GST-fusion protein (1 µM) captured on glutathione Sepharose, incubated with CHAPS-solubilised pig cardiac SR; RyR2 detected by immunoblot with Ab1093; residual micromolar Ca2+; only the target purified.
Assay [1] concerns the target T1, HA–CSQ2 (hemagglutinin-tagged human calsequestrin 2) (human) (UniProt O14958).
T1 sequence: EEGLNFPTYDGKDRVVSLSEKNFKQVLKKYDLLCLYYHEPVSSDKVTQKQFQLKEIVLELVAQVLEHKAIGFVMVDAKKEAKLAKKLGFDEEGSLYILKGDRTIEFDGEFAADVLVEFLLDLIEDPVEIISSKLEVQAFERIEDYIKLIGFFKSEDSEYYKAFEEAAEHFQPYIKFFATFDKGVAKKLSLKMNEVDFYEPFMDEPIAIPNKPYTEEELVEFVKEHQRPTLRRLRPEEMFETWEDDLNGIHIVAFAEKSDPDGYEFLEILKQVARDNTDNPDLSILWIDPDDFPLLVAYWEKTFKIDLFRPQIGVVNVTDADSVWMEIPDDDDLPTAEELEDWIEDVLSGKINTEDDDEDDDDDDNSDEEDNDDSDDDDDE
Briefly: co-IP; HA–CSQ2 immunoprecipitated with anti-HA from CHAPS-solubilised lysates of co-transfected HEK293 cells; partner detected by immunoblot (Ab1093 or anti-Myc); non-immune rabbit IgG as control; residual micromolar Ca2+. For orientation: A western blot detects proteins with antibodies after separation by electrophoresis.

Assay [2] deals with T1, HA–CSQ2 (hemagglutinin-tagged human calsequestrin 2) (human). Briefly: co-IP; competition: HA–CSQ2 immunoprecipitated with anti-HA from lysates of HEK293 cells co-expressing RyR2, in the presence of 1 µM GST–LL1 or GST alone.

Turning to “native RyR2 from pig cardiac SR (from UniProt A0A5G2R1W3 1-4900)”, in the assay with GST–FKBP12.6, the binding entry is “binds”.
On to “recombinant human RyR2 expressed in HEK293 cells (from UniProt Q92736 1-4967)”, for which the binding result in assay [1] and in assay [2] was “binds” in each case.
